Values from PubChem BioAssay AID1259270 (Sanger Institute, 2017)
Aim: 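Kinase genes whose loss is synthetically lethal with BYL719, cetuximab or trametinib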 (follow-up of hits). System: human SNU-C5 colorectal cancer cells. Reagents: single siRNA against human genes. Challenge: anchor drugs added after knock-down: BYL719 1 µM, cetuximab 5 µg/ml or trametinib 10 nM, or DMSO vehicle. Read-out: 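Replicate survival relative to non-targeting pool 2, then averaged; anchor drug added after silencing; synergy score weighs combination against each single treatment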. Scale: synergy score with BYL719 and synergy score with cetuximab and synergy score with trametinib: higher = stronger synergy (extra killing) with the drug; viability, knock-down alone (DMSO): higher = more cells survive. Hit rule: 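Synergy with at least one drug when any of the three synergy scores is over 0.10; otherwise no synergy with any drug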. Meaning of the calls: active = synergy with at least one drug; inactive = no synergy with any drug.
In all, the deposit lists 160 reagents; shown is a random part of them. In the full data, 76 (48%) got an active call. 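Four separate siRNAs per gene; calls are per siRNA in one cell line, looser than gene-level validation across several lines.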 The numbers tell different reagents against one gene apart. No viability above 1 is reported: the scale is capped. No sequences are given here. The record does not give: the amount of reagent, the time to read-out.

gene symbol | siRNA no. | synergy score with BYL719 | synergy score with cetuximab | synergy score with trametinib | viability, knock-down alone (DMSO) (fraction of control) | activity call
PRAG1 | 1 | -0.0704 | -0.0665 | -0.11 | 0.732 | inactive
PRAG1 | 2 | 0.42 | 0.0946 | 0.0747 | 0.846 | active
PRAG1 | 3 | -0.0391 | 0.125 | 0.116 | 0.959 | active
PRAG1 | 4 | -0.053 | -0.0543 | -0.394 | 0.607 | inactive
CRIM1 | 1 | 0.0172 | -0.0194 | -0.0583 | 0.864 | inactive
CRIM1 | 2 | -0.147 | -0.177 | -0.182 | 0.685 | inactive
CRIM1 | 3 | 0.0746 | -0.0084 | 0.000368 | 0.762 | inactive
CRIM1 | 4 | -0.328 | -0.236 | 0.124 | 0.667 | active
MAPKAPK2 | 1 | 0.118 | -0.304 | -0.353 | 0.727 | active
MAPKAPK2 | 2 | -0.0781 | -0.0501 | -0.109 | 1 | inactive
MAPKAPK2 | 3 | -0.0934 | -0.0223 | -0.235 | 0.685 | inactive
MAPKAPK2 | 4 | -0.215 | -0.0501 | -0.0141 | 1 | inactive
EPHA6 | 1 | -0.261 | -0.0471 | -0.108 | 0.441 | inactive
EPHA6 | 2 | 0.186 | -0.0867 | 0.273 | 0.661 | active
EPHA6 | 3 | 0.0721 | 0.154 | -0.0721 | 0.607 | active
EPHA6 | 4 | 0.115 | -0.12 | 0.342 | 0.738 | active

Sorted by “synergy score with BYL719” (descending): 5 of the entries above.
gene symbol | siRNA no. | synergy score with BYL719 | synergy score with cetuximab | synergy score with trametinib | viability, knock-down alone (DMSO) (fraction of control) | activity call
MAPKAPK2 | 1 | 0.118 | -0.304 | -0.353 | 0.727 | active
CRIM1 | 3 | 0.0746 | -0.0084 | 0.000368 | 0.762 | inactive
MAPKAPK2 | 2 | -0.0781 | -0.0501 | -0.109 | 1 | inactive
CRIM1 | 2 | -0.147 | -0.177 | -0.182 | 0.685 | inactive
CRIM1 | 4 | -0.328 | -0.236 | 0.124 | 0.667 | active

Next results follow.
gene symbol | siRNA no. | synergy score with BYL719 | synergy score with cetuximab | synergy score with trametinib | viability, knock-down alone (DMSO) (fraction of control) | activity call
NR2F2 | 1 | 0.132 | 0.0813 | 0.0942 | 0.995 | active
NR2F2 | 2 | -0.019 | 0.124 | 0.156 | 0.977 | active
NR2F2 | 3 | -0.0118 | 0.261 | 0.0908 | 0.971 | active
NR2F2 | 4 | -0.0287 | -0.16 | 0.229 | 0.578 | active
BRAF | 1 | -0.135 | -0.0662 | -0.357 | 0.488 | inactive
BRAF | 2 | -0.203 | -0.117 | -0.101 | 0.667 | inactive
BRAF | 3 | -0.0702 | -0.0241 | -0.098 | 0.244 | inactive
BRAF | 4 | -0.0904 | -0.05 | -0.201 | 0.643 | inactive
BMPR2 | 1 | 0.118 | 0.0804 | -0.026 | 1 | active
BMPR2 | 2 | -0.183 | -0.0379 | -0.336 | 0.518 | inactive
BMPR2 | 3 | -0.257 | -0.108 | -0.325 | 0.757 | inactive
BMPR2 | 4 | -0.167 | 0.0824 | -0.118 | 0.971 | inactive
PFKFB3 | 1 | -0.177 | -0.0474 | -0.184 | 0.608 | inactive
PFKFB3 | 2 | -0.0911 | 0.143 | 0.191 | 0.595 | active
PFKFB3 | 3 | -0.346 | -0.032 | -0.161 | 0.613 | inactive
PFKFB3 | 4 | -0.0951 | 0.0574 | 0.121 | 0.637 | active
